Test results: article PMC11427701
Results are given in words; binding and its absence hold for the method and conditions named. In cells and extracts the contact can be indirect. Some entries that bind do so weakly or less than the wild type. For some assays here: Sequences can lack the tags named with a protein. One block for each molecule: values may come before it.

Chains of the proteins cited; added tags and fusions are not shown. Residues count along the entry.
UniProt P38647, residues 47-679: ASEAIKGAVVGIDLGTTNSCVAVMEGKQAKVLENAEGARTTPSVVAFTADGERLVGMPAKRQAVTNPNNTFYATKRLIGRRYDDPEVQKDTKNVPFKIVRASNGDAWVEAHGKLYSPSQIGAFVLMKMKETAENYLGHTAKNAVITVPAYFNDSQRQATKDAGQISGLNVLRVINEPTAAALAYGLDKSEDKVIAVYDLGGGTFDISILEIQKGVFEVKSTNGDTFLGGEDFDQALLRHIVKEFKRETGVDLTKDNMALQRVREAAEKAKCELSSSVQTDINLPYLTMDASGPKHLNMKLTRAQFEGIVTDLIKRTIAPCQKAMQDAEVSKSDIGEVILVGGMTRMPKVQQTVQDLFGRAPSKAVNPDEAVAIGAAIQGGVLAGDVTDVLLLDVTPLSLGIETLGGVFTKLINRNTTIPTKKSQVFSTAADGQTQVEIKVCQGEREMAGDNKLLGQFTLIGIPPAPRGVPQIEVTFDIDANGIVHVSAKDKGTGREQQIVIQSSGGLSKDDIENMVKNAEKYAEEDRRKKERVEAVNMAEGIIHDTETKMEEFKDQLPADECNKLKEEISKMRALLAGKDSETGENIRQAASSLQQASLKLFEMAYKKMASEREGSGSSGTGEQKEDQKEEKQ
UniProt P38646, residues 47-679: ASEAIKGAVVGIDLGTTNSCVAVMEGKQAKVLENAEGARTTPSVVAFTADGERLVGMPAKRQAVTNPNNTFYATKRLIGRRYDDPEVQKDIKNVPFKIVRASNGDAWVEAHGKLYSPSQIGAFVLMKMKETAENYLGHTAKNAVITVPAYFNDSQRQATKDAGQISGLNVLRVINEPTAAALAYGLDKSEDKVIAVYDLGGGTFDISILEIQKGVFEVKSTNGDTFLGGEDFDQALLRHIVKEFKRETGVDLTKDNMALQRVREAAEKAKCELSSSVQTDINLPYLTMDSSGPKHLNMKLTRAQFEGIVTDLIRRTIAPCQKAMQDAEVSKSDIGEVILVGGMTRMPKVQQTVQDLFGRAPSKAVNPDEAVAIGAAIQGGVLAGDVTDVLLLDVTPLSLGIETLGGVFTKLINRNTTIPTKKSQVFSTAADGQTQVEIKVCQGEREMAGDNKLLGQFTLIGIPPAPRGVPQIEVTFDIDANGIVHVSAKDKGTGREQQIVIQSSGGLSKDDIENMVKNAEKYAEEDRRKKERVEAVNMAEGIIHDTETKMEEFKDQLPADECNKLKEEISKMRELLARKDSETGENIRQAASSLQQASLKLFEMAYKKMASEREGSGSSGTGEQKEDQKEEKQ

Columns and labels:
[1] = target: T1, ANT2 expressed from a plasmid in HEK293T cells (not stated (human or mouse cDNA cloned)) (UniProt P05141); test: co-IP; two-step: HEK293T lysates (Myc-GRP75, ANT2, Flag-UCP1) on anti-Flag magnetic beads overnight, eluted with 1 mg/mL Flag polypeptide, second immunoprecipitation with anti-ANT2 or control IgG
T1 sequence: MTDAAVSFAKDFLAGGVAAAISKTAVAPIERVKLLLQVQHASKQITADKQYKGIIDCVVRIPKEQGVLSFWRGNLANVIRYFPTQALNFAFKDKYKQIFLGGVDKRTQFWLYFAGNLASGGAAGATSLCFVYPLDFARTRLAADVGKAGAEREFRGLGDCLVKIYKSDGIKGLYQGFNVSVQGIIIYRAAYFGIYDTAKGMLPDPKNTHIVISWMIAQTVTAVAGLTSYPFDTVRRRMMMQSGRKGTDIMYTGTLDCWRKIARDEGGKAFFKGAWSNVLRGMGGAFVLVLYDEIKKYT

[2] = target: T2, Flag-UCP1 expressed in HEK293T cells (UniProt P25874); test: as above
T2 sequence: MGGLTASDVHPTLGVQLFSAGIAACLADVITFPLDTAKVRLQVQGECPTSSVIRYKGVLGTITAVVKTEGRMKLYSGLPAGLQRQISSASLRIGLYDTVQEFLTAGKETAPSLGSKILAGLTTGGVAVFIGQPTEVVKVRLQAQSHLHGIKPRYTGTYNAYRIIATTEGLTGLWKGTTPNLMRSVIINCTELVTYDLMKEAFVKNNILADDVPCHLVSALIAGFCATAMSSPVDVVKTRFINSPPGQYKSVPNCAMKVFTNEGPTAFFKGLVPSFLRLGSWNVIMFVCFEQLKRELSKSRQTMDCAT

[3] = target: T3, Adenine nucleotide translocase 2 (ANT2), endogenous mouse (mouse (endogenous in adipose tissue and 3T3-L1 adipocytes)) (UniProt P51881); test: proximity ligation; Duolink PLA in fixed differentiated 3T3-L1 adipocytes treated with NC-EVs or GRP75-overexpressing EVs; pairs of primary antibodies (anti-GRP75 + anti-ANT2; anti-ANT2 + anti-UCP1)
T3 sequence: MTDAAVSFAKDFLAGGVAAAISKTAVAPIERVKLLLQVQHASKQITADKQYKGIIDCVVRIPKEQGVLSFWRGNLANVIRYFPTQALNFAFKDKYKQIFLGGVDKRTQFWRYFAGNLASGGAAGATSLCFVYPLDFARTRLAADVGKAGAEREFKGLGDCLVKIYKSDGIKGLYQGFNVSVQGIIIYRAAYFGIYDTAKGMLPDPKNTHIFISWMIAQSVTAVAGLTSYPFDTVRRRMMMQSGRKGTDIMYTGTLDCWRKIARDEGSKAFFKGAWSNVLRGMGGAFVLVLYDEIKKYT

[4] = target: Glucose-regulated protein 75 (GRP75), endogenous mouse (mouse (endogenous in iWAT and 3T3-L1 adipocytes)) (UniProt P38647); test: as above
[5] = target: Glucose-regulated protein 75 (GRP75), endogenous mouse (mouse (endogenous in iWAT and 3T3-L1 adipocytes)) (UniProt P38647); test: co-IP; endogenous proteins in iWAT lysates of YES2 and LLC tumour-bearing mice; antibodies on protein A/G magnetic beads, overnight at 4 °C, washed ten times with lysis buffer; anti-IgG as negative control
[6] = target: Myc-GRP75 expressed in differentiated 3T3-L1 adipocytes (not stated (human or mouse cDNA cloned)) (UniProt P38647); test: co-IP; lysates of differentiated 3T3-L1 adipocytes cotransfected with Flag-ANT2 and Myc-GRP75 plasmids; protein A/G magnetic beads, overnight at 4 °C
[7] = target: T1, ANT2 expressed from a plasmid in HEK293T cells (not stated (human or mouse cDNA cloned)); test: co-IP; immunoprecipitation against ANT2 from HEK293T cell lysates with or without transfection of Myc-GRP75
[8] = target: Myc-GRP75 expressed in HEK293T cells (not stated (human or mouse cDNA cloned)) (UniProt P38646); test: co-IP; lysates of HEK293T cells co-expressing Myc-GRP75, ANT2 and Flag-UCP1; immunoprecipitated with anti-Myc or anti-Flag antibodies

binding [1]: binds | binding [2]: binds
Molecule: Myc-GRP75 expressed in HEK293T cells (from UniProt P38646 47-679)

binding [3]: binds
B1: Uncoupling protein 1 (UCP1), endogenous mouse (protein, UniProt P12242 1-307)
chain: MVNPTTSEVQPTMGVKIFSAGVSACLADIITFPLDTAKVRLQIQGEGQASSTIRYKGVLGTITTLAKTEGLPKLYSGLPAGIQRQISFASLRIGLYDSVQEYFSSGRETPASLGNKISAGLMTGGVAVFIGQPTEVVKVRMQAQSHLHGIKPRYTGTYNAYRVIATTESLSTLWKGTTPNLMRNVIINCTELVTYDLMKGALVNNKILADDVPCHLLSALVAGFCTTLLASPVDVVKTRFINSLPGQYPSVPSCAMSMYTKEGPTAFFKGFVASFLRLGSWNVIMFVCFEQLKKELMKSRQTVDCTT

binding [4]: binds | binding [5]: binds
B2: Adenine nucleotide translocase 2 (ANT2), endogenous mouse (protein, UniProt P51881 1-298)
chain: MTDAAVSFAKDFLAGGVAAAISKTAVAPIERVKLLLQVQHASKQITADKQYKGIIDCVVRIPKEQGVLSFWRGNLANVIRYFPTQALNFAFKDKYKQIFLGGVDKRTQFWRYFAGNLASGGAAGATSLCFVYPLDFARTRLAADVGKAGAEREFKGLGDCLVKIYKSDGIKGLYQGFNVSVQGIIIYRAAYFGIYDTAKGMLPDPKNTHIFISWMIAQSVTAVAGLTSYPFDTVRRRMMMQSGRKGTDIMYTGTLDCWRKIARDEGSKAFFKGAWSNVLRGMGGAFVLVLYDEIKKYT

binding [6]: binds
B3: Flag-ANT2 expressed in differentiated 3T3-L1 adipocytes (protein, UniProt P51881 1-298)
chain: MTDAAVSFAKDFLAGGVAAAISKTAVAPIERVKLLLQVQHASKQITADKQYKGIIDCVVRIPKEQGVLSFWRGNLANVIRYFPTQALNFAFKDKYKQIFLGGVDKRTQFWRYFAGNLASGGAAGATSLCFVYPLDFARTRLAADVGKAGAEREFKGLGDCLVKIYKSDGIKGLYQGFNVSVQGIIIYRAAYFGIYDTAKGMLPDPKNTHIFISWMIAQSVTAVAGLTSYPFDTVRRRMMMQSGRKGTDIMYTGTLDCWRKIARDEGSKAFFKGAWSNVLRGMGGAFVLVLYDEIKKYT

binding [7]: binds | binding [8]: binds
B4: Flag-UCP1 expressed in HEK293T cells (protein, UniProt P25874 1-307)
chain: MGGLTASDVHPTLGVQLFSAGIAACLADVITFPLDTAKVRLQVQGECPTSSVIRYKGVLGTITAVVKTEGRMKLYSGLPAGLQRQISSASLRIGLYDTVQEFLTAGKETAPSLGSKILAGLTTGGVAVFIGQPTEVVKVRLQAQSHLHGIKPRYTGTYNAYRIIATTEGLTGLWKGTTPNLMRSVIINCTELVTYDLMKEAFVKNNILADDVPCHLVSALIAGFCATAMSSPVDVVKTRFINSPPGQYKSVPNCAMKVFTNEGPTAFFKGLVPSFLRLGSWNVIMFVCFEQLKRELSKSRQTMDCAT
